Laboratory results published in patent US12622945B2, “Hard tissue therapeutics” (OrthoTrophix, Inc., priority 2020, dated 2026).
Values joined by “and” are separate entries in the source; they are usually repeats but may differ in a detail not shown here. Identical values can stand only once. “Also recorded” adds a separate entry of the source. At least one peptide structure holds a part that was inferred or is arguable (an end, a ring closure or a residue). Some entries share one result that the patent states for a list of compounds. Where no end group is shown, it is not given here.

What was measured:
[1] = system: αvβ1, αvβ6, αvβ8, α1β1, α2β1, α3β1, α4β1, α5β1, α6β1, α9β1, or α10β1; experiment: Competition ELISA with biotinylated RGD-Knottin, other hard tissue expressed integrins; type: binding, human; conditions: αvβ3 vs αvβ1, αvβ6, αvβ8, α1β1, α2β1, α3β1, α4β1, α5β1, α6β1, α9β1, α10β1
integrin αvβ5 = target: T1, integrin αvβ5 (Homo sapiens, UniProt P06756+P18084); experiment: Competition ELISA with biotinylated RGD-Knottin, integrin αvβ5; type: binding; conditions: for binding affinity to integrin αvβ5 relative to αvβ3 (times lower): αvβ5 vs αvβ3
T1 construct: purchased R&D Systems

integrin αvβ3 = target: T2, integrin αvβ3 (Homo sapiens, UniProt P05106+P06756); experiment: Competition ELISA with biotinylated RGD-Knottin, integrin αvβ3; conditions: peptide concentration giving 50% inhibition of biotinylated knottin binding; triplicate; read-out: binding affinity (IC50) of the peptide and integrin αvβ3 (converted)
T2 construct: purchased R&D Systems
Method: All integrins used in this study contained the human sequence.
The binding assay was conducted as a competition ELISA using biotinylated Knottin and unlabeled peptides.
Methods were carried out as follows, as described by Bernhagen 2017.
Incubation and washing buffers were prepared using standard protocols. Recombinant human integrins were purchased from R&D Systems (Minneapolis, U.S.A.). Strep-HRP (Streptavidin-Horseradish Peroxidase conjugate, Southern-Biotech, Birmingham, U.S.A.), and rabbit anti-mouse-HRP (Southern-Biotech, Birmingham, U.S.A.) were diluted 1:200-1:1000 for ELISA experiments.
All integrins were dissolved according to manufacturer's protocol and stored in 25 μL aliquots of 100 μg/mL in PBS. For coating of one 96 well plate, 2 aliquots were thawed and dissolved in 9.95 mL of cold coating buffer for a 0.5 μg/mL solution.
After coating, the plates were subsequently sealed and stored at 4° C. overnight. […]
The following washing and incubation steps were performed according to manuscript. […] Peptides, whose integrin binding strength were to be determined, were mixed in 12 different concentrations (each 3-fold dilutions) with a fixed concentration of RGD-Knottin (both in PBS, 15 min, room temperature), followed by incubation of the plates with peptide/RGD-Knottin solutions.
Substrate buffer incubation and absorbance measurements were identical to that for binding ELISA. […]

[2] = system: αvβ1, αvβ3, αvβ5, αvβ6, αvβ8, α1β1, α2β1, α3β1, α4β1, α5β1, α6β1, α8β1, α9β1, and α10β1; experiment: Competition ELISA with Knottin Peptide, panel of integrins expressed by hard tissue cells; type: binding, human; conditions: competitive ELISA with Knottin Peptide
[3] = system: subjects with bilateral knee osteoarthritis; conditions: cited from earlier work
[4] = system: subjects with bilateral knee osteoarthritis; experiment: Multicenter, randomized double-blind, placebo-controlled clinical study in bilateral knee osteoarthritis; type: in vivo, human
Method: No other doses of drug or placebo were administered.
MRI of both knees were obtained from these 93 subjects at baseline, 6 and/or 12 months. They were sent to the central readers of cartilage thickness and 3D bone shape, respectively. Both central readers were blinded to the treatment assignment and clinical data throughout their analysis process.
For the 3D bone shape analyses, its central reader first made a qualification review of all MRI images from the 93 subjects since they were obtained primarily for cartilage thickness measurement.
MRIs from the remaining 78 subjects (156 knees: 78 Index and 78 Control) were qualified for analysis of 3D shape of the knee joint bones (B-scores of femur, tibia, and patella).
If all clinical inclusion and exclusion criteria were met, MRIs of both knees were obtained and evaluated by a central reader to determine the ICRS grade (gICRS) of each knee as the final screening criterion. If the cartilage of patello-femoral compartment in both knees fell within ICRS grades 1-3, or 4 with only small focal defects no greater than 1 cm, the subject was registered. The randomization center randomized each subject to either “Right knee active” or “Left knee active”.
For enrolled subjects, there was within-subject randomization, such that one knee received active drug injections, and the contralateral knee received identical placebo injections. As two knees within a person form a matched set, the effects of individual-level confounders (e.g., level of activity, genetic and epigenetic factors, pain threshold) are eliminated, increasing the power of the study to detect a treatment effect if one is present.
Vital signs were also monitored after the injections.
Adverse events and concomitant medications were recorded.
All KOOS subscale scores, WOMAC Total score and subscale scores, MRI-based patello-femoral and tibiofemoral cartilage thickness, and MRI-based subchondral bone area and 3D bone shape were analyzed.
MRI images were provided to central readers for cartilage and subchondral bone measures, respectively. Central readers were blind as to treatment assignment.
3D shape of subchondral bone was analyzed using active appearance model (AAM) software developed by Imorphics (www.ftnorphics corn) specifically for assessing these parameters in the osteoarthritic knee.
Statistical analyses were carried out using a two-sided t-test at the 5% level of significance. The outcome variables were the differences of the change of the score of each subscale of KOOS and WOMAC, change of cartilage thickness, subchondral bone area, and 3D bone shape score (“B-score”) change from baseline to 6 and 12 months in the treated knee (“Index Knee”) compared with the placebo-exposed knee (“Control Knee”).

chondrocyte = conditions: in vitro and in vivo; cited from earlier work
human and rat bone cells = conditions: human and rat/murine orthologues; cited from earlier work
[5] = system: bone, cartilage, and dentin; conditions: mouse, rat, dog, goat, and baboon; cited from earlier work

With “PDLQERGDNDISPFSGDGQPFKD-NH2 (C-terminus assumed) [SEQ ID No: 12]” the “binding affinity to αvβ3 relative to other hard tissue expressed integrins (times higher)” value [1] was “at least 300 times”, the “binding to integrin αvβ5 (in words)” value (integrin αvβ5) was “some binding” and the “binding affinity to integrin αvβ5 relative to αvβ3 (times lower)” value (integrin αvβ5) was 3-4 times. For the same substance, the IC50 (integrin αvβ3) was roughly 9.08 µM and the “binding of various integrins to the peptide (selectivity, in words)” value (“binding … (selectivity, in words)” for short) [2] was “more potent binding to integrin αvβ3 than all other integrins; also recorded: selective binding to integrin αvβ3; also recorded: highly selective for the αvβ3 integrin”.
With “GFQDSLDSNRQDPGTDPEKGIDF-NH2 [SEQ ID No: 15, reference compound]” the “binding … (selectivity, in words)” value [2] was “did not bind any of the integrins; also recorded: did not bind any integrins tested; also recorded: no significant binding to any integrin tested”.
In the case of “TDLQERGDNDISPFSGDGQPFKD-NH2 (C-terminus assumed) [SEQ ID No: 10]”, the “knee functions, sports and recreation, knee-related QOL, knee pain frequency, pain on stairs, WOMAC total score” value ([3]; McGuire 2017, McGuire 2018) is listed as “clinically meaningful and statistically significant improvements”, the “pathological 3D bone shape change” value ([3]; McGuire 2019, McGuire 2020) is listed as “significantly reduce pathological 3D bone shape change” and the “binding affinity to αvβ3 relative to other hard tissue expressed integrins (times higher)” value [1] is listed as “at least 300 times”. For the same substance, the “binding to integrin αvβ5 (in words)” value (integrin αvβ5) was “some binding; also recorded: weaker binding”, the “binding affinity to integrin αvβ5 relative to αvβ3 (times lower)” value (integrin αvβ5) was 3-4 times and the “KOOS Knee-related QOL, Index vs Control knee” value ([4]; 12 months, 78 subjects) was “clinically meaningful and statistically significant improvement”. The “KOOS Pain subscale and WOMAC Pain domain” value ([4]; 12 months, 78 subjects) was “clinically meaningful improvement in Index knee at 12 months, although the difference with Control knees did not reach statistical significance”, the “femur B-score of Index knee compared with Control knee” value ([4]; 12 months, baseline B-score ≥1.5 cohort) was “markedly lower than that of Control knee” and the “3D subchondral bone shape changes in tibia and patella” value ([4]; 78 subjects) was “slower increases in Index Knee as compared to Control Knee”. The “WOMAC Function subscale, Index vs Control knee” value ([4]; 78 subjects) was “same robust improvement”, the “patient-reported outcomes including WOMAC and KOOS subscales, Index vs Control knee” value ([4]; 78 subjects) was “clinically meaningful and statistically significant improvements” and the “single queries of KOOS ADL and WOMAC Function (stairs, bending to floor, car, bath, toilet), Index vs Control knee” value ([4]; 78 subjects) was “statistically significant improvements”. For the same substance, the “cartilage thickness change, Index vs Control knee” value ([4]; 93 subjects, patello-femoral and tibiofemoral compartments, 12-month follow-up) was “neither patello-femoral nor tibiofemoral compartment showed significant difference”, the “WOMAC and KOOS subscales and questions, Index vs Control knee” value ([4]; all 93 subjects, 200 mg per dose, 6 months, 12 months, or both) was “clinically meaningful and statistically significant” and the “knee function measured by KOOS ADL in Index knee” value ([4]; baseline B-score ≥1.5 cohort, 3, 6 and 12 months) was “clinically meaningful improvement at 3 months after treatment, which was maintained through 6 and 12 months”. The “trajectory of the femur B-score change in Index knee” value ([4]; baseline B-score ≥1.5 cohort, compared with OAI database) was “very similar to that of non-OA (healthy) knees in the OAI database particularly for the first 6 months after the treatment”, the “knee pain measured by pain subscales of WOMAC and KOOS” value ([4]; higher femur Baseline B-Score cohort) was “more robust improvement in Index knee as compared to Control knee” and the “3D bone shape change in the OA knee joint compared with placebo controls” value ([4]; human, in vivo) was “slowed or arrested 3D bone shape change”. The IC50 (integrin αvβ3) was ~13 µM and ~11.8 µM, the “chondrocyte differentiation and secretion of type II collagen and aggrecan” value (chondrocyte) was “promote chondrocyte differentiation and secretion of critical matrix elements” and the “binding … (selectivity, in words)” value [2] was “more potent binding to integrin αvβ3 than all other integrins; also recorded: selective binding to integrins αvβ3; also recorded: highly selective for the αvβ3 integrin”. For the same substance, the “biological activities in the bone cells of the other species” value (human and rat bone cells) was “interchangeably show biological activities in the bone cells of the other species” and the “activities on bone, cartilage, and dentin” value [5] was “exhibited activities on bone, cartilage, and dentin”.
